The supplement of paper PMC5949888
Most values lie at the floor of the assay. Slopes are relative: functional sequences can read slightly below zero.

Each substance was assayed on Saccharomyces cerevisiae PS128 hsf1 delta, HSF1(1-493) fusion (assay: growth estimate (transactivation domain function in HSF1 fusion, heat-shock survival) (a.u. (slope of normalised read count over time)); higher = stronger growth at 37°C, i.e. more transactivation activity). Conditions: library: random library.

| Substance | growth estimate |
| --- | --- |
| AIPTRCRGRYLASIVTSNLK | < -0.25 |
| TRGI | < -0.25 |
| SPVHCFTS | < -0.25 |
| GSPSWGSRLPRWLVGLTPTL | < -0.25 |
| YIGIINSAARS | < -0.25 |
| GPVVMGYC | < -0.25 |
| YQVSKKAALKL | < -0.25 |
| VTKGRVGLLRLNV | < -0.25 |
| RQPEQTRHPGKPR | < -0.25 |
| TDRQGMRGGVTAPDC | < -0.25 |
| RIQ | < -0.25 |
| VRDGRPGPCGALVPLSYNTR | < -0.25 |
| AGIRLIILGRTTRIRKDRWH | < -0.25 |
| RSSPEMAMEPAPDTNFLSTR | < -0.25 |
| NPIGEFEISRRKKGLSKVVV | < -0.25 |
| QLWSERAPLFGRSTEGALFH | < -0.25 |
| RMKSDPGELAIGSEPTFEID | < -0.25 |
| SVA | < -0.25 |
| NGSSFSACTSVP | < -0.25 |
| RDESWAFISFLVSKFSFAVS | < -0.25 |
| RYFK | < -0.25 |
| FRMSRQMVLYTRVSFMRSGP | < -0.25 |
| VRM | < -0.25 |

| Substance | growth estimate |
| --- | --- |
| FDFTICVSHQLWEIMPMCRT | < -0.25 |
| YSRRKGSVGDRHIYAVATDK | < -0.25 |
| ARTGMSHEARQPISGMLDIS | < -0.25 |
| MGKGQCKGCTNRVLYYATTS | < -0.25 |
| YVYL | < -0.25 |
| AEELGEQVWLFTAAGPPRAS | -0.193 |
| TLEANGRAVLVAGRFEALTP | < -0.25 |
| SGWGSGYRL | < -0.25 |
| LTPRLTTYRESDLLREIKIV | < -0.25 |
| VTNAVRVPP | < -0.25 |
| QYGVDKGILKMITSTVVAVM | < -0.25 |
| AKDELVRLSC | < -0.25 |
| SPCGGRSRCLPSASQNAMQG | < -0.25 |
| VAVASCVRKGWF | < -0.25 |
| ESSPRQDACLITGNLSNLGT | < -0.25 |
| CSVL | < -0.25 |
| LWKRHNFTYASRLRLCSRWL | < -0.25 |
| LPY | < -0.25 |
| GKASNTIYKLALQPASRSQA | < -0.25 |
| VRFRILVHGHSHQN | < -0.25 |
| LHTNAGMQPAMCDGIQEAPN | < -0.25 |
| SFVFYGPSFSERTQVTHVYT | < -0.25 |
| PGWYQ | < -0.25 |

Single values from the list:
GKASNTIYKLALQPASRSQA – growth estimate: < -0.25
LWKRHNFTYASRLRLCSRWL – growth estimate: < -0.25
AKDELVRLSC – growth estimate: < -0.25
MGKGQCKGCTNRVLYYATTS – growth estimate: < -0.25
VTNAVRVPP – growth estimate: < -0.25

A second format for some results above.
Substance,growth estimate
VRM,< -0.25
FDFTICVSHQLWEIMPMCRT,< -0.25
YSRRKGSVGDRHIYAVATDK,< -0.25

The results go on.

| Substance | growth estimate |
| --- | --- |
| QMGARRLCWRARLDLFVSFI | < -0.25 |
| GNGRRKIPHFSQNIVSATNV | < -0.25 |
| PRKSSMGVSSCEFAEKCCAR | < -0.25 |
| GLWNRRYPGLRNRIRQLEH | < -0.25 |
| PVFAGSCRVAV | < -0.25 |
| RYRSNTRLGRWTGGPTACED | < -0.253 |
| RCAQENI | < -0.25 |
| TEMLIGEQVAQSPAKDAVPP | < -0.25 |
| IGEGLISTGSID | < -0.25 |
| GETMK | < -0.25 |
| YCDPNVREVD | < -0.25 |
| FSLASAGNEGTCMY | < -0.25 |
| FEL | < -0.25 |
| CRGDSEKT | < -0.25 |
| VEARGRTCRGVPPIVLWGSG | < -0.25 |
| SKFFQPFFCAIFCEW | < -0.25 |
| NSDTSGVMQERSVNLQLQLG | < -0.25 |
| RLQRSGRGIWE | < -0.25 |
| DDILDTLVSVGYRIYG | < -0.25 |
| HGLSRPDCRRSEAEMS | < -0.25 |
| LCVEYDRRQAGFGLDLRPQG | < -0.25 |
| LVVAFWSDKIADDPQNTGRP | < -0.25 |
| KSPIDDPSTLITGIKQHERE | -0.079 |

| Substance | growth estimate |
| --- | --- |
| AEMQEPSSCSFPMQRVVLSF | < -0.25 |
| LYDLLRQFVRLPWALNK | -0.239 |
| NRSEPPWFYQCKSSAHMRQV | -0.237 |
| TITINRSPTSQVRAFLR | < -0.25 |
| ACLGRGRSRSGLYA | < -0.25 |
| NDSEGS | < -0.25 |
| DPSPVAVVHAVSSFV | < -0.25 |
| IDS | < -0.25 |
| VTLQ | -0.245 |
| IPPYRLSRHTTCATLWFLTG | < -0.25 |
| IRQSRLLVRVIGAEQAVTCR | < -0.25 |
| LTVLEAKHVGGSSYFLDMTP | < -0.25 |
| GSSTVTRWSACIGLGVIELR | < -0.25 |
| FRVWRNDCREFLWRVSGDDI | < -0.25 |
| RHEPLQLNWKKLFYTSQTDK | < -0.25 |
| TTAKMSSKPAPRGLNYTSCP | -0.246 |
| DCF | < -0.25 |
| WSHSATKTSFGLEI | < -0.25 |
| AGDFI | < -0.25 |
| LHMSLCGTIHRSADCFSAQS | < -0.25 |
| RVLPTSPGLGRGDDCLVHHD | < -0.25 |
| FHA | < -0.25 |
| ELRCYLTRENDATGTDGASA | < -0.25 |

| Substance | growth estimate |
| --- | --- |
| LKVLIVSSI | < -0.25 |
| GVVSAAPPSPSAHYYRVHQL | < -0.25 |
| LGAFILLLKPGGYENAEHQV | < -0.25 |
| SGGVEIRGVFSTGKASE | < -0.25 |
| WGGRSIASYPVCTYGHDRLG | < -0.25 |
| AAIAGRGSPENLYLQVP | < -0.25 |
| SQVGMEGYMCNSSHLERYPN | < -0.25 |
| SCTRLGRKRVRQVEPESGRA | < -0.25 |
| RKC | < -0.25 |
| WDSQWDCKHSVRHRAA | < -0.25 |
| CGSGVCPGIWAVRVWSRPDL | < -0.25 |
| VVSDGKAVSIPPLPPGDFTR | < -0.25 |
| QGNSLRVEPQSGTG | < -0.25 |
| LKGHLG | < -0.25 |
| WYGEDPGRPEFLSLDQVSST | < -0.25 |
| EERWSTGMGTGPGCAGSRSL | < -0.25 |
| DSARDEKWNVSERLRLASLR | 0.0615 |
| DWPPSHAASPPMFYMWDRGP | < -0.25 |
| NLRSLLNDAIQG | < -0.25 |
| WRGKLT | < -0.25 |
| HQRGPSRIQGRRTVAWELFL | < -0.25 |
| NRRPFKRNL | < -0.25 |
| EWAWYHLVLSGCRFTYASTS | < -0.25 |

| Substance | growth estimate |
| --- | --- |
| SVSTVRY | < -0.25 |
| TKRPILCIKHLSCSRNERAK | < -0.25 |
| TRAS | < -0.25 |
| KIY | < -0.25 |
| CLAYLFRYCLV | < -0.25 |
| SSRHFAIIN | < -0.25 |
| VSEA | < -0.25 |
| EVNSSLDVTREIAPDCRENR | < -0.25 |
| RIEERF | < -0.25 |
| CWGDMENRIVLAPPGTESIR | < -0.25 |
| AFRILTRIRKTVSCLQRIYA | < -0.25 |
| EGRALLEDRCQ | < -0.25 |
| ENCFILGERDPNDSCGAT | < -0.25 |
| CVGLREAWAHGRPSVGVVA | < -0.25 |
| YWIRIKLGHLRLRANSSQNT | < -0.25 |
| DHFTCTALDCRA | < -0.25 |
| VQGFWAVNETR | < -0.25 |
| KLYANEGVRLSATSSRFGFP | < -0.25 |
| SGGYKTKVPGRNTYALRGRH | < -0.25 |
| TTPESTVRTSSGCE | < -0.25 |
| EQPIFPPRPVCMNSGFITHH | < -0.25 |
| VISPEE | < -0.25 |
| SEQDFVSGYREKFWSYLIRV | -0.221 |

| Substance | growth estimate |
| --- | --- |
| PDKRDVRTVALGRVITTSFL | < -0.25 |
| GFQHSLRVRRVEGLRGFKRL | < -0.25 |
| RTHLKLGLFEVTAPT | < -0.25 |
| GIGLSEIGKVICTSLHHFAV | < -0.25 |
| TLRAPS | < -0.25 |
| LTRRYCKSLLRPPRLLTLVS | < -0.25 |
| DRTLATSNPSFRAIRELPTA | < -0.25 |
| RRRRI | < -0.25 |
| TEVQISPQ | < -0.253 |
| CPCGKLRGNG | < -0.25 |
| NWVLLIL | < -0.25 |
| HSEDVWEGIH | < -0.25 |
| VTVERDTGNGSKPVRIPYRC | < -0.25 |
| IRLPGVLI | < -0.25 |
| IRTVTMTHMGNPFAGTTSSR | < -0.25 |
| TPARTRWEANIPGTGQSR | < -0.25 |
| DVILGKTLQPHAGLIIRDPT | < -0.25 |
| KSQHLRVRVYCHAETNLIPG | < -0.25 |
| RPELPGMFYCSQPGDQSPTL | < -0.25 |
